Test results from PubChem BioAssay AID2685 (National Center for Advancing Translational Sciences (NCATS), 2010).
Hit rate of the full screen: of about 320,000 compounds, about 2,100 (0.66%) were called active. The inconclusive results got no clear call from the source; some entries with a clear call stand among them for comparison. Calls come from the whole dose curve; as a rule, active = well fitted inhibition curve with a large enough effect in the signal ratio, with a control signal flat (not every such curve was filed as active); inconclusive = small, poorly fitted or top-dose-only effect, or effect the other way, or a change in a side signal; inactive = flat fitted curve, though single readings scatter; the % refers to the signal ratio. A potency beside an inconclusive call is a rough fit, not a confirmed value.

Experiment: qHTS Assay for Lipid Storage Modulators in Drosophila S3 Cells
Details: BODIPY lipid droplet fluorescence, 18-24 h, cells fed with added oleic acid; lipid storage change, negative = inhibition: at 46.1 µM (top of the series) unless noted
In short: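 Drosophila S3 cells got compounds at several concentrations plus oleic acid (400 uM solution). Laser-scanning cytometry with 488 nm excitation read lipid droplets at 500-530 nm and cells at 575-640 nm. Percent activity was relative to 20 uM Triacsin C.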
% is set by controls: 0 for no effect and ±100 for the full control effect; potency is the fitted concentration of half-maximal effect.

Row | SMILES | Potency | lipid storage change, negative = inhibition
1 | CC(NC(=O)Nc1ccc(Br)cc1)C(C)(C)C (configuration not stated) | inconclusive: 23.1 µM [falling, single point] | –
2 | COc1ccc(-c2csc(NC(=O)Cc3ccccc3)n2)cc1OC | inconclusive: 1.84 µM [activator, partial curve] | –
3 | CCOC(=O)Cc1csc(NC(=O)COc2ccccc2OC)n1 | – | inconclusive: 35.5%
4 | CC(C)C[C@H](NC(=O)Nc1ccccc1F)C(=O)O | inconclusive: 18.4 µM [falling, single point] | –
5 | CCc1cc2c(-c3ccccc3)cc(=O)oc2cc1OC(C)C(=O)O (configuration not stated) | – | inconclusive: 17.6%
6 | NC(=O)CCC(NC(=O)c1ccc(Cl)cc1)C(=O)NCCc1ccc2c(c1)OCCO2 (configuration not stated) | – | inconclusive
7 | CCc1cc(=O)oc2c(C)c(O[C@@H]3O[C@H](CO)[C@@H](O)[C@H](O)[C@H]3O)ccc12 | – | inconclusive: 49.9%
8 | CCOc1cc(/C=C/C(=O)OCC(=O)NCc2ccco2)cc(Cl)c1OC | – | inconclusive
9 | C=CCc1cccc(CNc2c(C)n(C)n(-c3ccccc3)c2=O)c1O | inconclusive: 29.1 µM [falling, single point] | –
10 | CCn1c(=O)cc(SCC(=O)N(C)Cc2ccccc2)c2ccccc21 | inconclusive: 0.164 µM [rising, full curve, poor fit] | –
11 | Cc1ccc(S(=O)(=O)N(C)CCCC(=O)N2CCN(C=O)CC2)cc1 | inconclusive: 29.1 µM [activator, single point] | –
12 | CCC1CCCCN1CCCNC(=O)CCCNC(=O)Cn1cnc2sc3c(c2c1=O)CCCC3 (configuration not stated) | – | inconclusive: 6.09%
13 | O=C(N/N=C/c1ccccn1)c1cc(-c2ccccc2)nc2ccccc12 | – | inconclusive: -24.3%
14 | COC(=O)c1ccc(C2C(C(=O)c3ccco3)=C(O)C(=O)N2c2cc(C)on2)cc1 (configuration not stated) | inconclusive: 29.1 µM [activator, partial curve] | –
15 | Cc1cccnc1N(C(=O)Nc1cccc(Cl)c1)C1=NCC(C)(C)S1 | – | inconclusive: 4.38%
16 | Fc1ccc(Nc2ncnc3sccc23)cc1 | – | inconclusive: 205%
17 | Cc1ccc(-c2ccc(SCC(=O)Nc3cc(C)on3)nn2)cc1 | – | inconclusive: 27.4%
18 | Cc1occc1-c1nnc(SCC(=O)NCCc2ccccc2)n1Cc1ccccc1 | inconclusive: 0.731 µM [activator, full curve] | –
19 | CC(O)c1ccc(OCCN(C)c2ccccn2)cc1 (configuration not stated) | – | inconclusive: 11.8%
20 | CCOC(=O)NC(=O)COC(=O)CNC(=O)c1ccc(OCC)c(OCC)c1 | – | inconclusive: 4.67%
21 | COC(=O)C1CCCN1S(=O)(=O)c1ccc2ccccc2c1 (configuration not stated) | – | inconclusive: 35.4%
22 | O=C(NCc1nc2ccccc2[nH]1)C1=C[C@@H](C2CCCCC2)C[C@@H](OCCCCO)O1 | – | inconclusive: 8.69%
23 | O=C(C(=O)N1CCOCC1)c1cn(CCOc2ccccc2)c2ccccc12 | inconclusive: 29.1 µM [cytotoxic, single point] | –
24 | CCc1ccccc1N(CC(=O)N1CCN(c2ccc(F)cc2)CC1)S(C)(=O)=O | – | inconclusive: 6.41%
25 | O=C(NC1CC1)C1=C[C@@H](c2c[nH]c3ccccc23)C[C@@H](OCc2ccc(CO)cc2)O1 | inconclusive: 29.1 µM [falling, single point] | –
26 | CCOc1ccc(NC(=O)CCNC(=O)Cn2ccc3ccccc3c2=O)cc1 | inconclusive: 3.66 µM [activator, full curve] | –

Row | SMILES | Potency | lipid storage change, negative = inhibition
27 | COc1ccc(CNC(=O)CSc2nnnn2C)cc1OC | – | inconclusive: -22.2%
28 | CCN(CC)c1ccc(NC(=O)CCS(=O)(=O)c2ccc(Br)cc2)c(C)c1 | – | inconclusive: -20.6%
29 | CCOC(=O)c1sc(NC(=O)CS(=O)(=O)c2ccc(C)cc2)nc1C | inconclusive: 29.1 µM [activator, single point] | –
30 | Cc1ccccc1OCC(=O)NNC(=O)CSc1nc(N)cc(N)n1 | inconclusive: 3.66 µM [activator, full curve] | –
31 | O=C1/C(=C/c2cccnc2)SC(=S)N1C1CCS(=O)(=O)C1 (configuration not stated) | inconclusive: 7.31 µM [falling, partial curve] | –
32 | NS(=O)(=O)c1ccc(CCNC(=O)c2ccc3ccccc3n2)cc1 | – | inconclusive: 77.9%
33 | CC(=O)c1ccccc1-c1csc2ncnc(Sc3nnnn3C)c12 | – | inconclusive: 15.1%
34 | CCNc1nc(NC(C)C)nc(NC(C)(C)C)n1 | – | inconclusive: -27.8%
35 | CCOC(=O)/C(C#N)=C(\N)C(C)C(=O)Nc1ccccn1 (configuration not stated) | inconclusive: 29.1 µM [activator, partial curve, poor fit] | –
36 | CCOc1ccc2c(c1)c(N=O)c(O)n2C | – | inconclusive: 22.1%
37 | CCN(CC)C(=O)CSC1=C(C#N)C(c2cccs2)C=C(C)N1 (configuration not stated) | – | inconclusive: 13.7%
38 | Cc1ccc(C(=O)NC2CCCC2)cc1S(=O)(=O)N1CCCCC1 | – | inconclusive: 71.4%
39 | CC(=O)c1ccc(S(=O)(=O)N2CCN(c3ccccc3F)CC2)cc1 | – | inconclusive: 20.6%
40 | COC(=O)CNC(c1ccccc1)c1cc(Br)ccc1NC(=O)CCN1CCOCC1 (configuration not stated) | – | inconclusive: -17.5%
41 | CC[C@]12CCCN3CCc4c(n(c5ccccc45)C(=O)C1)[C@@H]32 | – | inconclusive: 11.2%
42 | CCC(C)[C@H](NC(=O)NCc1cccc(OC)c1)C(=O)OC (some centres not stated) | – | inconclusive: -194%
43 | CCCN=C1N/C(=C\c2ccco2)C(=O)N1c1ccccc1 | inconclusive: 20.6 µM [activator, single point] | –
44 | CCOC(=O)c1c(S(=O)(=O)NCC(=O)N2CCN(c3ccccc3OC)CC2)c(C)n(C)c1C | inconclusive: 9.2 µM [activator, partial curve] | –
45 | Cc1nc2ccccn2c1C(=O)/C=C/c1ccc(F)cc1 | – | inconclusive: -17.1%
46 | CC(C)CC(=O)NC(=S)N1CCN(c2ccc([N+](=O)[O-])cc2Cl)CC1 | inconclusive: 6.51 µM [activator, single point] | –
47 | Cc1cccc(NC(=O)CC2(CC(=O)O)CCCC2)c1 | – | inconclusive: -4.37%
48 | S=c1nc2ccccc2c2nc(-c3ccccc3)[nH]n12 | inconclusive: 13 µM [activator, partial curve] | –
49 | Cc1cc(S(=O)(=O)NCC(C)C)ccc1OCC(=O)NC1CC1 | – | inconclusive: 40.1%
50 | CCN(CC)CCNC(=O)c1ccc2c(c1NCCO)C(=O)c1ccccc1C2=O | – | inconclusive: -23.4%
51 | Cc1nc(C)c(C(=O)OCC(=O)Nc2ccccc2SCC#N)s1 | inconclusive: 0.92 µM [falling, full curve, poor fit] | –
52 | Cc1nc2c(nnn2Cc2c(Cl)cccc2Cl)c(=O)[nH]1 | inconclusive: 23.1 µM [activator, single point] | –

2 entries picked at random from the list so far, as already listed:
Row | SMILES | Potency | lipid storage change, negative = inhibition
28 | CCN(CC)c1ccc(NC(=O)CCS(=O)(=O)c2ccc(Br)cc2)c(C)c1 | – | inconclusive: -20.6%
47 | Cc1cccc(NC(=O)CC2(CC(=O)O)CCCC2)c1 | – | inconclusive: -4.37%

Next records:

Row | SMILES | Potency | lipid storage change, negative = inhibition
53 | C/C(=N\NC(=S)NC1CCCCC1)c1ccc(O)cc1 | – | inconclusive: 23.3%
54 | CCOc1cccc(C(=O)NC(=S)Nc2ccc(N3CCN(CC)CC3)cc2)c1 | – | inconclusive: 88.2%
55 | COc1cccc(NC(=O)C2CCN(S(=O)(=O)c3ccc4c(c3)N(C(C)=O)CCO4)CC2)c1 | inconclusive: 16.4 µM [activator, single point] | –
56 | N#C/C(=C/c1ccc(N2CCOCC2)o1)C(=O)Nc1ccccc1 | – | inconclusive: -82.2%
57 | CCOc1ccc(CCNC(=O)C2CCN(S(=O)(=O)N3CCC(C)CC3)CC2)cc1OCC | – | inconclusive: 6.62%
58 | CN1CCc2cccc3c2C1Cc1ccc(O)c(O)c1-3 (configuration not stated) | inconclusive: 29.1 µM [falling, single point] | –
59 | COc1ccccc1N1CCN(Cc2nc3ccccc3[nH]2)CC1 | – | inconclusive: 102%
60 | Cc1ccc(CN(C(=O)COc2ccc(C)c(C)c2)C2CCS(=O)(=O)C2)o1 (configuration not stated) | – | inconclusive: 32.9%
61 | Cc1ccc(S(=O)(=O)CCC(=O)NCc2ccco2)cc1 | – | inconclusive: 49.9%
62 | O=C(OCc1cncs1)c1ccccc1Cl | – | inconclusive: -12.4%
63 | Cc1cc(NC(=O)CN2CCC(C)CC2)no1 | – | inconclusive: 18.8%
64 | Cn1c(=O)[nH]c(=O)c2c1nc(N1CCCCC1)n2CCCSc1nnnn1-c1ccccc1 | – | inconclusive: -87.4%
65 | O=C(CC(Sc1ccc(Br)cc1)C(=O)O)c1ccc(Br)cc1 (configuration not stated) | inconclusive: 29.1 µM [cytotoxic, single point] | –
66 | CCN(CC)S(=O)(=O)c1cccc(-c2nnc(SCC#N)n2Cc2ccccc2)c1 | – | inconclusive: 18.3%
67 | CC(=O)NC(Cc1ccc(C)cc1)C(=O)NC1CCN(S(=O)(=O)c2ccccc2)CC1 (configuration not stated) | inconclusive: 0.116 µM [activator, single point] | –
68 | O=C(O)c1ccc(NS(=O)(=O)/C=C/c2ccccc2)cc1 | inconclusive: 18.4 µM [falling, single point] | –
69 | O=C(O)C1CCCN1C(=O)Nc1ccc(F)cc1 (configuration not stated) | active: 6.51 µM | –
70 | O=C(CSc1cccc2cccnc12)Nc1cc(C(=O)O)cc(C(=O)O)c1 | – | inconclusive: 4.42%
71 | C=CCC(NC(=O)Cc1ccccc1)C(=O)NCCC (configuration not stated) | – | inconclusive: 27.6%
72 | Cc1ccccc1CSCCNC(=S)Nc1ccccc1 | – | inconclusive: -32.6% [at 0.369 µM]
73 | Cc1cc(C(=O)NCc2cccnc2)no1 | – | inconclusive: 9.41%
74 | Cn1c(SCC(=O)NCC2CCCO2)ncc(C(=O)Nc2ccccc2)c1=O (configuration not stated) | – | inconclusive: -29.9%
75 | Cc1ccc(SCC(=O)c2cc(C)c(OC(=S)N(C)C)c(C)c2)cc1 | – | inconclusive: -7.53%
76 | COc1cccc(NC(=O)CN(C)S(=O)(=O)c2ccc3c(c2)CCC(=O)N3)c1 | – | inconclusive: 44.8% [activator]
77 | CC(C)(C)C1CCC(=NNC(=S)Nc2cccnc2)CC1 (configuration not stated) | inconclusive: 0.461 µM [activator, partial curve, poor fit] | –

An excerpt from above in order of length of the SMILES, ascending:
Row | SMILES | Potency | lipid storage change, negative = inhibition
69 | O=C(O)C1CCCN1C(=O)Nc1ccc(F)cc1 (configuration not stated) | active: 6.51 µM | –
58 | CN1CCc2cccc3c2C1Cc1ccc(O)c(O)c1-3 (configuration not stated) | inconclusive: 29.1 µM [falling, single point] | –
77 | CC(C)(C)C1CCC(=NNC(=S)Nc2cccnc2)CC1 (configuration not stated) | inconclusive: 0.461 µM [activator, partial curve, poor fit] | –
59 | COc1ccccc1N1CCN(Cc2nc3ccccc3[nH]2)CC1 | – | inconclusive: 102%
